Laboratory results taken from the supplement of paper PMC12578635.
This is one part of the list. No stated cut-off is given here; in the data, active = 150% or more and inactive = the rest. Repeats are few or missing, and single values can be far off.

tested on: Staphylococcus aureus JE2-lux inside RAW 264.7 macrophages; assay: intracellular bacterial bioluminescence relative to DMSO vehicle; higher = higher intracellular bacterial metabolic activity; conditions: 10 µM; treatment time 4 h; gentamicin 50 µg/ml

Intracellular bacterial bioluminescence, inactive:
COc1ccc(C(=O)NCCc2cc3c(C)ccc(C)c3[nH]c2=O)c(OC)c1 97.7%, O=C(CSCc1ccccc1)Nc1cccc2c1C(=O)NC2=O 83.4%, CC(CCc1ccccc1)NC(=O)Cn1c2c(c(=O)n3nc(-c4ccccc4)nc13)CCC2 (stereo not drawn) 83.3%, Cc1cc(Oc2ncnc(N)c2[N+](=O)[O-])cc(C(C)C)c1 79.9%, CC(C)[C@H](Cn1nc(C2CC2)ccc1=O)NC(=O)c1cnn2cccnc12 91.1%, COc1ccc(NC(=O)C(=O)Nc2cc3c4c(c2)CC(=O)N4CCC3)cc1 60%, CCOC(=O)CSC1=C(C#N)C(c2ccccc2[N+](=O)[O-])C(C(=O)OC)C(=O)N1 (stereo not drawn) 96.9%, O=C(O)c1ccc2c(c1)C(=O)N(CCCN1CCOCC1)C2=O 115%, CC(=O)c1csc(NC(=O)COc2cccc3nsnc23)n1 3.05%, COc1ccc(NC(=O)N2c3ccccc3CC2C(N)=O)c(OC)c1 (stereo not drawn) 104%, COc1ccc(-n2ccn(CC(=O)Nc3ccc(Br)cc3F)c(=O)c2=O)cc1Cl 50%, NC(=O)C1CCN(C2=NC(=O)/C(=C/c3cn(-c4ccccc4)nc3-c3ccncc3)S2)CC1 94.3%, O=C(NCC1COc2ccccc2O1)c1cc2c(=O)n3ccccc3nc2s1 (stereo not drawn) 114%, O=C(Nc1nc2c(s1)CCCC2)c1ccc(-c2nc3ccccc3s2)s1 114%, COc1cccc(NC(=O)Cn2c(C)cc(=O)n3nc(-c4ccccc4C)nc23)c1 93.7%, O=C(CC1Nc2ccccc2NC1=O)Nc1ccc(N2CCCCC2)cc1 (stereo not drawn) 82.7%, Cc1cc(NC(=O)NCCCSc2nnc(C)s2)no1 96.5%, C=CCOc1ccccc1NC(=O)c1c(-c2ccncc2)noc1C 108%, COc1ccccc1CNC(=O)C1CCN(c2ncc3nc(-c4ccccc4)oc3n2)CC1 81.7%, COc1ccc(S(=O)(=O)N(C(C)=O)c2ccc3oc(C)c(C(C)=O)c3c2)cc1 119%, O=C(N/N=C/c1ccccc1O)c1cc(Br)ccc1O 101%, CC1Cc2cc(-c3nn(-c4ccccc4)cc3/C=C3\SC(=S)NC3=O)ccc2O1 (stereo not drawn) 96.6%, COc1ccc(O)c(NS(=O)(=O)c2ccc3c(c2)NC(=O)CO3)c1 86.3%, Cc1ccc(NC(=O)CC2C(=O)Nc3ccccc3N2C(=O)c2ccc(Br)cc2)cc1C (stereo not drawn) 19.6%, CC[C@@H](Cn1ncc2ccccc2c1=O)NC(=O)c1ccc2c(c1)n(C)c(=O)n2C 109%, O=C(CSc1ncnc2c1oc1ccccc12)NCCc1ccccc1 84.4%, Cc1cc(C)c(NC(=O)CS(=O)CC(=O)NC2CCS(=O)(=O)C2)c(C)c1 (stereo not drawn) 109%, Cn1c(=O)c2cc(C(=O)Nc3nccs3)sc2n(C)c1=O 94.6%, N#Cc1c(N)n(-c2ccc(NC(=O)c3cccs3)cc2)c2nc3ccccc3nc12 38.4%, CC1=C(C(=O)Nc2ccc(Br)cc2)C(c2ccc(C(C)C)cc2)NC(=O)N1 (stereo not drawn) 97.7%, COc1ccc(C(=O)CSc2nc(COc3ccccc3)nc3ccccc23)cc1 100%, Cc1cc(NC(=O)CSC2=NS(=O)(=O)c3ccccc3N2)[nH]n1 114%, COc1cc2ncc(C(=O)NCc3cccnc3)c(O)c2cc1OC 103%, COc1cc2cc(C3CC(c4ccco4)=NN3)c(Cl)nc2cc1OC (stereo not drawn) 124%, CN1C(=O)c2cccc(NC(=O)c3ccc(S(=O)(=O)N(C)CC4CCCO4)cc3)c2C1=O (stereo not drawn) 105%, COc1ccc(C(=O)Nc2nc3c(cc4c5c(cccc53)CC4)s2)c(OC)c1 97.7%, O=C(NC1CCCCC1)C(c1ccc2ncccc2c1)N(C(=O)c1cccs1)c1ccc(F)cc1 (stereo not drawn) 92.7%, O=C(O)c1cccc(S(=O)(=O)/N=C2/C=C(NS(=O)(=O)c3ccccc3)C(=O)c3ccccc32)c1 73.7%, O=c1[nH]c(NNC(=S)Nc2ccccc2)nc2sc3c(c12)CCCC3 116%, O=C(O)c1ccc2c(c1)C(=O)N(Cc1ccc3c(c1)OCO3)C2=O 113%, Cc1ccc(-c2nnn3c2[nH]c(=O)c2cc(Cl)ccc23)cc1 88.4%, O=C(NCCCc1ccccc1)c1c(O)nc2sccn2c1=O 92.8%, Nc1c(C(=O)NC2CCCCC2)sc2nc3c(cc12)C(=O)CCC3 106%, CCOC(=O)c1ccc2nc(NC(=O)Cc3cccc4ccccc34)sc2c1 69.1%, CCOC(=O)c1c(NC(=O)C2CC(=O)NN2Cc2ccccc2)sc2c1CCC2 (stereo not drawn) 122%, CCOC(=O)N1CCN(C(=O)CSc2ncnc3ccccc23)CC1 90.6%, O=C(NCC(c1cccs1)S(=O)(=O)c1ccccc1)Oc1ccccc1 (stereo not drawn) 89.3%, O=C(O)CC1C(=O)NCCN1Cc1cccc(C(F)(F)F)c1 (stereo not drawn) 101%, COC(=O)c1c(NC(=O)c2ccc(C#N)cc2)sc2c1CC(C)(C)NC2(C)C 115%, Cc1nc2ccc3nc(NC(=O)c4sc5ccccc5c4Cl)sc3c2s1 126%, Cc1ccc(-n2c(C)cn3c4c(=O)n(CC(N)=O)c(=O)n(C)c4nc23)cc1 108%, O=C(CSc1nncc(=O)[nH]1)Nc1ccc2c(c1)OCO2 46.6%, Cc1ccc(NC2SC(=O)N(CC(=O)O)C2=O)cc1 (stereo not drawn) 131%, COc1ccc(C(NC(=O)c2nnn(-c3ccccc3)c2C)c2ccncc2)cc1 (stereo not drawn) 48.7%, CCc1cc(-c2csc(S(=O)(=O)Nc3ccc(F)c(Cl)c3)c2)on1 37.5%, O=C(CCC1CCCCC1)NCc1n[nH]c(=O)c2ccccc12 82.4%, CC1CCCCN1Cc1nc2c([nH]1)c(=O)n(C)c(=O)n2C (stereo not drawn) 106%, N#Cc1cc2cc3c(cc2nc1SCC(=O)N1CC(=O)Nc2ccccc21)OCO3 111%
